The values that follow come from PubChem BioAssay AID463205 (Broad Institute, 2010).

In all, about 2,400 compounds went through this assay and about 20 (0.8%) were called active.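 Rule for the calls: active = AC50 no more than ten times the highest tested concentration, or full inhibition at every dose giving a flat fit (cut at about 30 µM in these data); inconclusive = flat fit with activity between 30% and 70%, or poor-quality invalid fit; inactive = AC50 more than ten times the top tested dose.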 This is one part of the list.

This experiment is described as follows: inhibitors of ADP-Glo detection reagents, dose response, artefact control for GSK-3a inhibitor project, biochemical, luminescence, cell-free, homogeneous (AID 463205).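 Note: kinase-free counter-screen against the ADP-Glo detection reagents only; potency is for inhibitors that reduce the luminescence signal.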 Conditions: 5 uM ADP.
Regarding `CCc1nnc(NS(=O)(=O)c2ccc(N/C=C(\C=O)c3nc4cc(Cl)ccc4o3)cc2)s1`, the AC50 is inactive: > 30 µM.
